Source: US20150005237A1, “PEPTIDIC INHIBITOR OF SIGNAL TRANSMISSION FROM G-ALPHA-S TO G-ALPHA-I-COUPLED RECEPTOR CASCADES” (UNIVERSITÄT INNSBRUCK, priority 2011, published 2015)
Results are given in words; binding and its absence hold for the method and conditions named. Some binding calls cover weakened binding; strength is not graded here.

Sequences of proteins named here, by UniProt entry; tags and fusion partners are left off.
UniProt P08753: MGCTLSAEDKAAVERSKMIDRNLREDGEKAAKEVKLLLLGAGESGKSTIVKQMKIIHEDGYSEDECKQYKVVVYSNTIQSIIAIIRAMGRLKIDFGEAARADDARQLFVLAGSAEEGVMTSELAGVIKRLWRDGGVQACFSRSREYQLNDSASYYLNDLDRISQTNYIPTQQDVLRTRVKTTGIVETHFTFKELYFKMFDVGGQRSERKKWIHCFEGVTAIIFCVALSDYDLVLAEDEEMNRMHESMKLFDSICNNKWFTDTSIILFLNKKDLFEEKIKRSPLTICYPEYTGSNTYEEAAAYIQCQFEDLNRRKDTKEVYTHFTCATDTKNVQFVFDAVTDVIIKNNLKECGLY

Tests used:
[1] = biological target: GST-Gαi3 (fusion of full-length Gαi3 and gluthatione S-transferase) (rat) (UniProt P08753); assay: dot blot of spotted peptides overlaid with recombinant GST-Gαi3
[2] = biological target: GST-Gαi3 (fusion of full-length Gαi3 and gluthatione S-transferase) (rat) (UniProt P08753); assay: dot blot of spotted peptides overlaid with recombinant GST-Gαi3, densitometry

Row | binding [1] | binding [2] | Binder
1 | binds |  | QGDSADSFFIVESGE [spotted peptide containing the Reggai sequence of RIIβ (SEQ ID No. 7)]
2 | binds | binds | QGASADSFFIVESGE [spotted peptide, mutant functional variant of the Reggai sequence (SEQ ID No. 8)]
